Structures can show the parent of a compound that is named as a salt. This is one part of the list. Repeats are few or missing, and single values can be far off.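 Labelled rat cortical synaptosomes were engulfed by primary human fetal astrocytes. Engulfment equaled a red/green ratio, corrected for calcein live-cell signal and normalized to the plate median. Compounds were toxic when calcein dropped over 30%, and reduced phagocytosis when below 70% of the median above 5 µM.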
The compounds below were run on Human fetal astrocytes (assay: loss of total cells relative to no-compound high-control median (toxicity); higher = more toxic (fewer cells)). Settings: 1.39 µM; 24 h.

| SMILES | loss of total cells |
| --- | --- |
| Cc1cc2c(cc1Cl)N(C(=O)Nc1cccc3ncccc13)CC2 | -2.4% |
| CNCC[C@@H](Oc1ccccc1C)c1ccccc1 [Tomoxetine] | -29.5% |
| CCSC(N)=Nc1ccc(C(F)(F)F)cc1 [TFPI hydrochloride] | -17.7% |
| NCCCCNS(=O)(=O)c1ccc2c(Cl)cccc2c1 | -14.7% |
| CC1CCN(CC[C@H]2CCCN2S(=O)(=O)c2cccc(O)c2)CC1 | 7.1% |
| OC[C@H]1O[C@@H](n2cnc3c(Nc4ccccc4)ncnc32)[C@H](O)[C@@H]1O [N6-Phenyladenosine] | 4% |
| CNCC[C@H](Oc1ccc(C(F)(F)F)cc1)c1ccccc1 [S-(+)-Fluoxetine hydrochloride] | -16.3% |
| Nc1nc(Cl)nc2c1ncn2[C@@H]1O[C@H](CO)[C@@H](O)[C@H]1O [2-Chloroadenosine] | -18.7% |
| C#C[C@]1(O)CC[C@H]2[C@@H]3CCC4=Cc5oncc5C[C@]4(C)[C@H]3CC[C@@]21C [Danazol] | -2.9% |
| N#C/C(=C\c1ccc(O)c(O)c1)C(=O)c1ccc(O)c(O)c1 [Tyrphostin AG 538] | -0.3% |
| NCC(O)c1ccc(O)c(O)c1 (racemic) [(±)-Norepinephrine (+)bitartrate] | -1.1% |
| CN1CCN(CCCN2c3ccccc3Sc3ccc(Cl)cc32)CC1 [Prochlorperazine dimaleate] | -7.8% |
| CCOC(=O)c1cnc2c(cnn2CC)c1NN=C(C)C [Etazolate hydrochloride] | 2.1% |
| NC/C=C/C(=O)O [(E)-4-amino-2-butenoic acid] | -7.8% |

Single entries from the list:
CN1CCN(CCCN2c3ccccc3Sc3ccc(Cl)cc32)CC1 [Prochlorperazine dimaleate] | loss of total cells: -7.8%
NC/C=C/C(=O)O [(E)-4-amino-2-butenoic acid] | loss of total cells: -7.8%
